Laboratory results from publication PMC9518283 (Journal of Enzyme Inhibition and Medicinal Chemistry, 2022).

Conditions: class from PAMPA Pe

## NS(=O)(=O)c1cc(C(=O)O)c(NCc2ccco2)cc1Cl [Furosemide]
  CNS predicted availability: CNS− (CNS – (low BBB permeation predicted): Pe (×10^−6 cm s^−1) < 2.0)
